According to PubChem BioAssay AID624297 (National Center for Advancing Translational Sciences (NCATS), 2012):
The whole screen tested about 340,000 compounds, of which about 6,200 (1.8%) were called active. This list was built around the results that the source calls inconclusive (neither active nor inactive); the mix of calls is not that of the screen. The call rests on the fitted dose curve; in most records, active means well fitted activation curve with a large enough effect; inconclusive means small, poorly fitted or top-dose-only effect; inactive means no such curve, though single readings can be large or run the other way. A potency beside an inconclusive call is a rough fit, not a confirmed value.

Assay: A quantitative high throughput screen for small molecules that induce DNA re-replication in SW480 colon adenocarcinoma cells. Further: nearly all actives have a fitted effect of over 55% in size. On re-replication activation: % of control where 0% means no effect.
Details: Hoechst DNA content imaging, 48 h; re-replication activation: at 46.1 µM (top of the series) unless noted
Procedure, shortened: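 Hoechst fluorescence of nuclei (405 nm excitation, 500-530 nm emission) measured by plate-scanning imager after 48 hr compound exposure at 37 C; re-replication scored as increased number of nuclei with elevated intensity.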
Potency means the concentration at half of the fitted maximal effect.

**Q.** For `COc1ccc(S(=O)(=O)N2CCC(C(=O)Nc3ccccc3N3CCCCC3)CC2)cc1OC`, which “re-replication activation” value is on record?
**A.** inactive: 14.7%

**Q.** For `CCCC(=O)NNC(=O)c1c(O)c2ccccc2[nH]c1=O`, which “re-replication activation” value is on record?
**A.** inactive: 5.69%

**Q.** Which “re-replication activation” value does the source give for `CCCCN(C(=O)CCCc1nc2ccccc2c(=O)[nH]1)c1c(N)n(CCCC)c(=O)[nH]c1=O` here?
**A.** inactive: -0.609%

**Q.** With `CCN(CC)c1ccc(CNCc2cccs2)cc1` as the compound, how does the “re-replication activation” value read?
**A.** inactive: -10.3%

**Q.** Which “re-replication activation” value does the source give for `O=C(CN(C(=O)CNC(=O)c1cccs1)c1ccccc1F)NC1CCCC1` here?
**A.** inactive: -1.99%

**Q.** Which “re-replication activation” value does the source give for `Cc1ccc(N2CCN(C(=O)NC3CCCCC3)CC2C)cc1` (stereo unspecified) here?
**A.** inactive: -29.6%

**Q.** For `CCCn1c(Nc2nc3ccccc3n2C)nc2ccccc21`, which Potency is on record?
**A.** inconclusive: 29.1 µM [activator, single point]

**Q.** For `CCc1cc(-c2[nH]ncc2-c2nc3ccccc3n2C)c(O)cc1O`, which “re-replication activation” value is on record?
**A.** inactive: 25.6%

**Q.** With `COc1ccccc1-c1sc2ccccc2c1-c1ccc(O)cc1` as the compound, how does the Potency read?
**A.** active: 16.4 µM

**Q.** With `CCOC(=O)C1CCN(C(=O)C2c3ccccc3C(=O)N(C)C2c2ccc(OC)cc2)CC1` (stereo unspecified) as the compound, how does the “re-replication activation” value read?
**A.** inactive: -12.3%

**Q.** Which Potency does the source give for `CC(C)(C)c1ccc(-c2noc(CCC(N)=O)n2)cc1` here?
**A.** inconclusive: 29.1 µM [activator, single point]

**Q.** With `CCCc1cc(=O)[nH]c2nnc(SCC(=O)NCc3ccc4c(c3)OCO4)n12` as the compound, how does the “re-replication activation” value read?
**A.** inactive: 3.27%

**Q.** Which Potency does the source give for `Cc1ccc(OCCC(=O)N(Cc2ccccc2)c2c(N)n(Cc3ccccc3)c(=O)[nH]c2=O)cc1` here?
**A.** inconclusive: 16.4 µM [activator, single point]

**Q.** With `CCOC(=O)C(C)Sc1nc(-c2cccs2)ccc1C#N` (stereo unspecified) as the compound, how does the Potency read?
**A.** inconclusive: 18.4 µM [activator, partial curve, poor fit]

**Q.** With `CC(C)C(NC(=O)C12CC3CC(CC(C3)C1)C2)C(=O)N/N=C/C1=C(N2CCOCC2)C(=C\c2cccc([N+](=O)[O-])c2)/CC1` (stereo unspecified) as the compound, how does the Potency read?
**A.** inconclusive: 23.1 µM [activator, partial curve, poor fit]

**Q.** Which “re-replication activation” value does the source give for `O=C(CCC1CCCN(C(=O)c2cc3ccccc3o2)C1)NCc1ccc(F)c(F)c1` (stereo unspecified) here?
**A.** inactive: -0.826%

**Q.** Which Potency does the source give for `COc1cccc(CC(=O)Nc2ccc(N3CCOCC3)c(S(=O)(=O)Nc3ccccc3OC)c2)c1` here?
**A.** inconclusive: 4.11 µM [activator, partial curve, poor fit]

**Q.** With `CCn1c(CSc2nc3ccccc3s2)nnc1SCC(N)=O` as the compound, how does the Potency read?
**A.** inconclusive: 20.6 µM [activator, single point]

**Q.** For `O=[N+]([O-])c1cccc(C=Nc2cccc3ccccc23)c1O`, which Potency is on record?
**A.** inconclusive: 29.1 µM [activator, single point]

**Q.** Which Potency does the source give for `Cc1cccc(N2CCN(C(=O)c3ccncc3)CC2C)c1` (stereo unspecified) here?
**A.** inconclusive: 29.1 µM [activator, single point]

**Q.** Which “re-replication activation” value does the source give for `CC(C)(C)C(=O)CSc1ncnc2c1cnn2Cc1ccccc1` here?
**A.** inactive: 12%

**Q.** Which Potency does the source give for `N/C(=N\OC(=O)CCC1CCCC1)c1ccc(Cl)cc1` here?
**A.** inconclusive: 23.1 µM [activator, single point]

**Q.** Which Potency does the source give for `O=S(=O)(c1ccc(S(=O)(=O)N2CCCN(Cc3ccccc3)C2)cc1)N1CCCCCC1` here?
**A.** inconclusive: 18.4 µM [activator, single point]

**Q.** Which “re-replication activation” value does the source give for `Cc1ccc(/C=N/N(C)S(=O)(=O)c2ccc(C)cc2)cc1` here?
**A.** inactive: -3.89%

**Q.** With `Cc1ncc([N+](=O)[O-])n1CC(=O)Nc1ccc(Br)cc1` as the compound, how does the Potency read?
**A.** inconclusive: 1.03 µM [activator, full curve, poor fit]

**Q.** For `CC1=C/C(=N\Nc2ccccc2[N+](=O)[O-])CC(C)(C)C1`, which Potency is on record?
**A.** inconclusive: 0.517 µM [activator, full curve, poor fit]

**Q.** With `O=C(COc1cc2oc(=O)c3c(c2cc1Cl)CCCC3)N1C[C@H]2C[C@@H](C1)c1cccc(=O)n1C2` as the compound, how does the Potency read?
**A.** inconclusive: 2.06 µM [activator, full curve, poor fit]

**Q.** Which Potency does the source give for `CCOC(=O)C1(Cc2ccccc2C)CCCN(C(=O)c2sccc2C)C1` (stereo unspecified) here?
**A.** inconclusive: 29.1 µM [activator, single point]

**Q.** With `CN1C(C(=O)Nc2ccc(OC(F)(F)F)cc2)=CC(c2ccc3c(c2)OCO3)=NS1(=O)=O` as the compound, how does the Potency read?
**A.** inconclusive: 25.9 µM [activator, single point]

**Q.** For `Cc1ccccc1C(=O)N1CCc2ccccc2C1`, which “re-replication activation” value is on record?
**A.** inactive: -0.732%

**Q.** For `S=c1[nH]nc(-c2cc3ccccc3o2)n1Cc1ccccc1`, which “re-replication activation” value is on record?
**A.** inactive: 1.92%

**Q.** For `COCCNC(=O)c1noc2c1CCc1cc(OC)ccc1-2`, which “re-replication activation” value is on record?
**A.** inactive: -2%

**Q.** For `CC1(C)c2[nH]c3ccccc3c2C[C@H]2C(=O)N(Cc3cccc(F)c3)C(=O)N21`, which Potency is on record?
**A.** inconclusive: 11.6 µM [activator, partial curve, poor fit]

**Q.** Which Potency does the source give for `Cc1cc(C(=O)N/N=C/c2cc(N=Nc3ccccc3)ccc2O)n[nH]1` here?
**A.** inconclusive: 3.26 µM [activator, full curve]

**Q.** With `Cc1ccc2nc(NC(=O)c3ccccn3)sc2c1` as the compound, how does the “re-replication activation” value read?
**A.** inactive: -0.141%

**Q.** Which Potency does the source give for `Cc1noc(C)c1S(=O)(=O)Nc1ccc(C(C)C)cc1` here?
**A.** inconclusive: 18.4 µM [activator, single point]

**Q.** Which Potency does the source give for `COc1cc2ccccc2cc1C(=O)N(CCN(C)C)c1nc2ccc(Br)cc2s1` here?
**A.** active: 23.1 µM

**Q.** For `O=C(NCCCN1CCN(c2ccc(F)cc2)CC1)C1CCCN(c2ncnc3c2nc2n3CCCCC2)C1` (stereo unspecified), which “re-replication activation” value is on record?
**A.** inactive: -3.7%

**Q.** For `COC(=O)c1[nH]c2cccc(OC)c2c1NC(=O)CCN1CCSCC1`, which “re-replication activation” value is on record?
**A.** inactive: -81.7%

**Q.** With `CCOC(=O)c1c(NC(=O)CSc2nnnn2-c2ccccc2)sc2c1CC(C)(C)NC2(C)C` as the compound, how does the Potency read?
**A.** inconclusive: 29.1 µM [activator, single point]

**Q.** For `COc1cccc(C(=O)N2c3ccccc3Sc3ccccc32)c1`, which Potency is on record?
**A.** inconclusive: 18.4 µM [activator, single point]

**Q.** With `CCCCN(C)C(=S)Nc1ccsc1C(=O)OC` as the compound, how does the Potency read?
**A.** inconclusive: 6.51 µM [activator, single point]

**Q.** For `O=C(CCc1ccncc1)NC1CCCc2c1cnn2-c1cc(F)cc(F)c1` (stereo unspecified), which Potency is on record?
**A.** inconclusive: 1.16 µM [activator, single point]

**Q.** With `CN(CCC1CCCCO1)C(=O)CCc1nnc(CCCCc2ccccc2)o1` (stereo unspecified) as the compound, how does the Potency read?
**A.** inconclusive: 20.6 µM [activator, partial curve, poor fit]

**Q.** For `Cc1c(C(=O)NNC(=S)Nc2ccc(S(N)(=O)=O)cc2)oc2ccccc12`, which Potency is on record?
**A.** inconclusive: 18.4 µM [activator, single point]

**Q.** For `CN(Cc1ccccc1)C(=O)c1cccnc1`, which “re-replication activation” value is on record?
**A.** inactive: -9.15%
